For test [1], the target named is YFP-Parkin, expressed in HeLa cells (UniProt O60260). Put plainly: proximity ligation.
In test [2] the target is T1, GM130 (human (endogenous in HeLa)) (UniProt Q08379).
T1 sequence: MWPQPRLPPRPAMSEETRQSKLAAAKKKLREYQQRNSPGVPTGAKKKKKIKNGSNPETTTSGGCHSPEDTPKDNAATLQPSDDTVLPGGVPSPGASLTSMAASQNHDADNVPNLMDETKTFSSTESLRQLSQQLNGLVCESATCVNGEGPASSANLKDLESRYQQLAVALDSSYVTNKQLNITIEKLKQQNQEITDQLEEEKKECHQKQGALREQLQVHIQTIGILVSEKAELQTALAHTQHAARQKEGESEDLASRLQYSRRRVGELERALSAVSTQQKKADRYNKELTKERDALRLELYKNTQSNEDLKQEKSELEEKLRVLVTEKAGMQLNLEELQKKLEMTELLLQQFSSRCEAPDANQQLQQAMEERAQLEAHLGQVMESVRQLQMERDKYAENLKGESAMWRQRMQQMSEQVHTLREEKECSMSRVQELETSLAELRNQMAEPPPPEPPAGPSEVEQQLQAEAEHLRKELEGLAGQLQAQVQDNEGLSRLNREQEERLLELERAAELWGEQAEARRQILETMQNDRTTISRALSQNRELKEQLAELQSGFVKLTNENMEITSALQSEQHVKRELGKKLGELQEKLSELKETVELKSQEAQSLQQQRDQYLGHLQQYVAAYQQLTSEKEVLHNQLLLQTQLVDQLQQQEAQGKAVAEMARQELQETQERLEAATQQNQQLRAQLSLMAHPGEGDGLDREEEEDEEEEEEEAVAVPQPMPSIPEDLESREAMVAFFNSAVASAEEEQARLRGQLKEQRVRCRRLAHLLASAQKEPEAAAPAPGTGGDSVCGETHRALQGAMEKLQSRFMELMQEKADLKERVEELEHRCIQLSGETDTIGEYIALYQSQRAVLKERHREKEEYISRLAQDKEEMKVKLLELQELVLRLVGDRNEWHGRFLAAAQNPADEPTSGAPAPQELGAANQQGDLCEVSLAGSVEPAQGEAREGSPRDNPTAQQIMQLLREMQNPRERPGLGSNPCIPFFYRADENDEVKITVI
Kind of test: proximity ligation.

By UniProt entry, the sequences of proteins in these tests, tags left out.
UniProt O60260: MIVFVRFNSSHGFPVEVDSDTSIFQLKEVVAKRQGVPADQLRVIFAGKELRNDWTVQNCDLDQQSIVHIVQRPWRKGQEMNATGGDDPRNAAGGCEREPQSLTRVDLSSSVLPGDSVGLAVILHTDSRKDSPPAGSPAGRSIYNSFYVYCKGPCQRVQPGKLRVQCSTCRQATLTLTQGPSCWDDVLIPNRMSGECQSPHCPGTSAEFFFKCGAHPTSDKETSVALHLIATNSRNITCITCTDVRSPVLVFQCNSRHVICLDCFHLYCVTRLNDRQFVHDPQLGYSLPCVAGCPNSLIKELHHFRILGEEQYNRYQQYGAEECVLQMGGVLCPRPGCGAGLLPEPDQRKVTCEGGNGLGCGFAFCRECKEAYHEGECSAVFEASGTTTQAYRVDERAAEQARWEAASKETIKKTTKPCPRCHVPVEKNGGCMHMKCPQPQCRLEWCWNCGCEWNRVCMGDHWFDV
UniProt Q9BQQ3: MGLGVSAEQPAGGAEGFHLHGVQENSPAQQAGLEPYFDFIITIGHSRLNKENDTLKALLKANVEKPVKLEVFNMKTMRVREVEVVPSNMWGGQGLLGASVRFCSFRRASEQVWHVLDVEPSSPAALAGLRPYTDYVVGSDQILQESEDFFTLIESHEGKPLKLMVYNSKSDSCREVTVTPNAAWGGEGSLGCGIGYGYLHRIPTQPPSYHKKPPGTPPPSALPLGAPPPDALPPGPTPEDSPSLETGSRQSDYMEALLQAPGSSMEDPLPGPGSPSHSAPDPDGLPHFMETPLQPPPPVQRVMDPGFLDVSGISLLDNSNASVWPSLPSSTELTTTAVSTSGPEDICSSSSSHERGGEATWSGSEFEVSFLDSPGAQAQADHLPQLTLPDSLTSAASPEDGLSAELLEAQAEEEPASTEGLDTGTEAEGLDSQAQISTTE

These are yes or no findings as the source states them, for the method shown. In cells and extracts the contact can be indirect. Some results given as binding are weak or reduced against the parent protein; the word gives no strength.

Take GRASP65 (from UniProt Q9BQQ3 1-440): the figures for the binding result in test [1] and in test [2] were “no binding” and “binds”, respectively.

The record behind these values is publication doi:10.1101/2023.01.31.526442.
